# Laboratory results published in the supplement of paper PMC3334620.
# In all, about 33,000 sequences were measured (“E-score (-0.5 to 0.5)”: median about -0.0034, highest 2% from about 0.25 on). The list shows a part of the results.
# Biological target: T1, Yap3 (UniProt P38749)
# T1 sequence: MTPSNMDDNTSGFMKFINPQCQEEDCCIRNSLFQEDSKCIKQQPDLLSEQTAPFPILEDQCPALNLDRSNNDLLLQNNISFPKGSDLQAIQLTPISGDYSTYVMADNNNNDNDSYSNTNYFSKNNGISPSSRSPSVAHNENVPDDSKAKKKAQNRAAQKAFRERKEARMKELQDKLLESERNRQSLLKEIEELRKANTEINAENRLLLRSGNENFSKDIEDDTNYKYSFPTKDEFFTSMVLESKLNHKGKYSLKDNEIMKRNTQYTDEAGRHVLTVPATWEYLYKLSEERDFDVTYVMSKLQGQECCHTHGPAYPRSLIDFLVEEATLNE
# Assay: PBM E-score (8-mer binding enrichment) (E-score (-0.5 to 0.5)); higher = stronger / more preferred TF binding
# Conditions: protein concentration: 100 nM; construct: GST-full length
# How it was run: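 Bound GST-tagged yeast transcription factors, applied at about 100-200 nM to double-stranded universal all-10-mer Agilent arrays, were detected with fluorescent anti-GST. Scans were normalised with masliner. A modified Wilcoxon-Mann-Whitney statistic, the E-score, was assigned to each ungapped eight-base word pooled with its reverse complement by the Universal PBM Analysis Suite.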
row,Sequence,PBM E-score
1,CTTTGGGA,-0.148
2,CCGACAGA,0.107
3,CGCCTCTA,0.142
4,CGAAGCTA,-0.0129
5,GCAACAAA,0.193
6,ACATTACG,0.286
7,ATGCTTGC,-0.171
8,CCCCACAA,-0.0402
9,ACGCCCCT,-0.275
10,GGCTAGAA,0.0581
11,ACGACCAC,0.0501
12,AGAGGCGC,-0.186
13,AGAGTGAA,-0.0448
14,GAGCTCAA,0.0384
15,CGGCTCTC,-0.193
16,ATCGGGGA,0.0249
17,AGCGGATA,-0.069
18,CGGCGCCC,-0.11
19,GGAATACA,0.0216
20,ACCAAGAG,-0.0958
21,CTAACAAG,0.0409
22,ACGTTCCT,-0.0243
23,GAAATCCC,-0.0899
24,ACGAGCTA,-0.253
25,GGTCTGGA,-0.137

row,Sequence,PBM E-score
1,ATGTTAAG,0.105
2,TACTCATA,0.0212
3,AGGATTAC,0.125
4,ATCGCCAC,0.207
5,CTTCCACA,0.00996
6,CCTAAAAC,-0.00129
7,AAGCGCAC,-0.00615
8,GCCATAAC,-0.0573
9,CAGGCGCC,-0.0752
10,GAGCACTC,-0.16
11,GGACACCA,-0.0775
12,CTTGATAC,-0.0529
13,GCTCCAAC,-0.0214
14,GTAACCTA,0.133
15,AACATCTC,0.08
16,CTGAGCCA,-0.112
17,TGAAAGCA,0.254
18,ACGATCAG,0.00831
19,GGCGTCAC,-0.00084
20,GGGCCCTA,-0.276
21,AACGAAAC,0.159
22,AAACTTTG,0.0821
23,GCCATCAC,-0.0186
24,CCCATTGA,-0.0177
25,GCACTCTA,0.0293

row,Sequence,PBM E-score
1,ATGTATGA,0.105
2,CAACTAAA,0.0999
3,AACGAGTT,-0.0775
4,CAAGTAAC,0.043
5,CGAGGCTA,-0.0739
6,AGCCTTGG,-0.104
7,CAACCAGA,0.0129
8,CCCAGAAG,-0.217
9,AAGTGTCC,-0.0723
10,AGAATACT,0.164
11,AACTAGTA,0.109
12,CGGATCAG,-0.0755
13,GATAAACA,0.0819
14,GCTTTACA,0.0571
15,ACATAGGG,-0.0844
16,GGCAACTA,0.0389
17,ACGGGTAT,0.0167
18,CAACATCG,0.177
19,AGTCAAAC,-0.0978
20,GCAAACAA,0.272
21,ATCTTTGC,0.161
22,ACGTTTAA,0.137
23,CTCGTTAA,0.0917
24,AATTCGGA,0.0803
25,CAACGTTG,0.239

row,Sequence,PBM E-score
1,GGCGTCCA,-0.00825
2,ACCACTAC,-0.0507
3,GTGCTAAA,0.0452
4,CATAGCCG,-0.0425
5,CCCTCGAA,-0.166
6,GCAACTTA,0.1
7,GCTCCGCA,-0.131
8,ATGCATTC,0.0938
9,AGTTCGAC,-0.0163
10,CGTGCACA,-0.0397
11,AATGACCA,0.175
12,TCGGAAAA,0.275
13,GACATATC,0.121
14,AGCGAACT,-0.0138
15,CCTCGAGC,-0.0293
16,CAGAACAA,0.248
17,AGCCAACG,0.0109
18,ACGGGATA,0.11
19,AGTACTTA,-0.0181
20,ATAAGGTC,0.105
21,CCCAGGAG,-0.288
22,CCAGGGCA,-0.189
23,GCATGACC,-0.158
24,GACCGTCA,-0.106
25,CACTTTCA,-0.05

# No new results follow: entries from further up.
row,Sequence,PBM E-score
16,CAGAACAA,0.248
17,AGCCAACG,0.0109
18,ACGGGATA,0.11

# (continued)

row,Sequence,PBM E-score
1,AGTTAACA,0.158
2,GTAAACAC,-0.0139
3,TATGAATA,0.266
4,AGTACCTA,0.0179
5,CCATACCG,0.0615
6,ATAGGGCA,-0.111
7,AACAGCAT,0.106
8,ATGCCACA,-0.00698
9,GGAGGTAC,-0.148
10,GAAACTGC,-0.152
11,TAATCATA,0.244
12,CGAGTTCC,0.136
13,CCCCATTC,-0.0929
14,CCACCAGC,-0.0909
15,GCCGGGAC,-0.242
16,GACGCCGA,0.165
17,AAGGCCAC,-0.143
18,AGGAGCGG,-0.277
19,CACAAATA,0.152
20,GCGTCGCA,-0.163
21,TTAACAAA,0.129
22,ACCAATAC,0.0412
23,AGAGAGCA,-0.149
24,CGATACAA,0.112
25,ACAATACA,0.0763

row,Sequence,PBM E-score
1,AGGGTGCG,-0.104
2,CGGGTCCA,-0.299
3,CCGCGCGG,0.293
4,TGATGACA,0.069
5,GCCCGCTA,-0.272
6,CGAATTAC,0.0851
7,GAGATATC,0.0326
8,ACTTATGC,0.0843
9,GGCGAACC,-0.223
10,CAAAACTC,0.13
11,CGCCGTAG,-0.114
12,TCCCGCGA,-0.19
13,AGGTGTGA,-0.0646
14,AGAGACGG,-0.143
15,TCGCCGCA,-0.102
16,CGACGCAA,-0.0781
17,ATAGCAAC,0.0566
18,AAGAGGGA,-0.122
19,ACTAGTGG,0.0165
20,AGTCTGTC,-0.157
21,AGGACCTA,0.0695
22,TAGGCGAA,-0.0231
23,GCGGTCAC,-0.23
24,AGGTCACA,-0.157
25,AATGACAA,0.211

row,Sequence,PBM E-score
1,CAGGGCGG,-0.275
2,AACAACGA,0.19
3,CCAGTTTA,0.00939
4,AACTTCTA,-0.0537
5,ACAGAGAG,-0.111
6,TAATACCA,0.204
7,AGCGTCGG,-0.0472
8,CCTCGTAA,0.203
9,AGCGATAG,-0.121
10,CCATGTTA,0.08
11,CGCAGGCG,-0.285
12,ACGAGACC,-0.0193
13,GCTGTCCA,0.0344
14,CTTTGAAA,0.11
15,TCAGTCCA,-0.171
16,AACCAATT,0.203
17,AAGCTAGT,-0.0349
18,CGTCAAAC,-0.00904
19,AACCGCTA,-0.108
20,CGCTGCGC,-0.281
21,AAGTCGAA,-0.0326
22,ATCAATAA,0.172

# Single entries from the list:
# Under PBM E-score, CGTCAAAC reads -0.00904
# Under PBM E-score, TAATACCA reads 0.204
# Under PBM E-score, AGCGTCGG reads -0.0472
# Under PBM E-score, CGCAGGCG reads -0.285
# Under PBM E-score, AGCGATAG reads -0.121
